Assay [1] addresses T1, clasped and tagged αVβ5 (recombinant human αVβ5 ectodomain with C-terminal coiled-coil clasp and affinity tags) (human) (UniProt P06756+P18084). Put plainly: TALON pull-down, 1 µM bead-bound clasped and tagged αVβ5, 2 µM Hsp90α as Apo, ATP, AMP-PNP or ADP form; Coomassie and western blot (FIG. 4F).
Assay [2] addresses T1, clasped and tagged αVβ5 (recombinant human αVβ5 ectodomain with C-terminal coiled-coil clasp and affinity tags) (human). Description: TALON pull-down, bead-bound clasped αVβ5 and untagged Hsp90α, Coomassie staining (FIG. 8C).
The target of assay [3] is endogenous cell surface integrin αVβ5 on SK-Mel2 cells (human) (UniProt P06756+P18084). Put plainly: co-immunoprecipitation from SK-Mel2 cells; cell surface Hsp90α captured by anti-Hsp90α on live cells at 4° C (FIG. 9B).

Sequences of proteins named here, by UniProt entry; tags and fusion partners are left off. A change or cut given only in a name is not applied to a line headed by its entry.
UniProt P06756: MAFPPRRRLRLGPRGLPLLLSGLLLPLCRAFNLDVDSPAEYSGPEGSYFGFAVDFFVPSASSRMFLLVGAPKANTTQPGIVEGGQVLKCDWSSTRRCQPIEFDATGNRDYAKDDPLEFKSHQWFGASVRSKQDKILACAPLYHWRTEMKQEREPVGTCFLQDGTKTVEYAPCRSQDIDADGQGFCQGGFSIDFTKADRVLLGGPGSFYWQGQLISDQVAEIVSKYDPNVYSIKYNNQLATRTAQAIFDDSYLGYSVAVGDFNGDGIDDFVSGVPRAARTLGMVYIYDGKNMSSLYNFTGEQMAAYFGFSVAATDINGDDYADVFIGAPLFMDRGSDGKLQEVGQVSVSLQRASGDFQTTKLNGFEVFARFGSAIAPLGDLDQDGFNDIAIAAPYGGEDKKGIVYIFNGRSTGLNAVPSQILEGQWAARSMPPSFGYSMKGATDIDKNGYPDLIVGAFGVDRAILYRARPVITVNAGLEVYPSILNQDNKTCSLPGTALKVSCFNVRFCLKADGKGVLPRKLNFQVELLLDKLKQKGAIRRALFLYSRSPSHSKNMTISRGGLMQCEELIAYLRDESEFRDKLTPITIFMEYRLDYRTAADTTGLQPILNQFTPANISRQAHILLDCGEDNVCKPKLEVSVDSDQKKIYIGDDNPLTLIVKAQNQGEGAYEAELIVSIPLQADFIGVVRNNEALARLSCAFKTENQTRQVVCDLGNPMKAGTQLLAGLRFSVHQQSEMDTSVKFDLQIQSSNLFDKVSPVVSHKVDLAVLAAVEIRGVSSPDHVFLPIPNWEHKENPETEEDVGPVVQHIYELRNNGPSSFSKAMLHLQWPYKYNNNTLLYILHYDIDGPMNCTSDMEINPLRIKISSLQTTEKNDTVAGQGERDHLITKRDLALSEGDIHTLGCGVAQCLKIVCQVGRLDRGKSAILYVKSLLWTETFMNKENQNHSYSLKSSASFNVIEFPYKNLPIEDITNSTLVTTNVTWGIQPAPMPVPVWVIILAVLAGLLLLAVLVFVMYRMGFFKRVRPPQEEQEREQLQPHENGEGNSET
UniProt P18084: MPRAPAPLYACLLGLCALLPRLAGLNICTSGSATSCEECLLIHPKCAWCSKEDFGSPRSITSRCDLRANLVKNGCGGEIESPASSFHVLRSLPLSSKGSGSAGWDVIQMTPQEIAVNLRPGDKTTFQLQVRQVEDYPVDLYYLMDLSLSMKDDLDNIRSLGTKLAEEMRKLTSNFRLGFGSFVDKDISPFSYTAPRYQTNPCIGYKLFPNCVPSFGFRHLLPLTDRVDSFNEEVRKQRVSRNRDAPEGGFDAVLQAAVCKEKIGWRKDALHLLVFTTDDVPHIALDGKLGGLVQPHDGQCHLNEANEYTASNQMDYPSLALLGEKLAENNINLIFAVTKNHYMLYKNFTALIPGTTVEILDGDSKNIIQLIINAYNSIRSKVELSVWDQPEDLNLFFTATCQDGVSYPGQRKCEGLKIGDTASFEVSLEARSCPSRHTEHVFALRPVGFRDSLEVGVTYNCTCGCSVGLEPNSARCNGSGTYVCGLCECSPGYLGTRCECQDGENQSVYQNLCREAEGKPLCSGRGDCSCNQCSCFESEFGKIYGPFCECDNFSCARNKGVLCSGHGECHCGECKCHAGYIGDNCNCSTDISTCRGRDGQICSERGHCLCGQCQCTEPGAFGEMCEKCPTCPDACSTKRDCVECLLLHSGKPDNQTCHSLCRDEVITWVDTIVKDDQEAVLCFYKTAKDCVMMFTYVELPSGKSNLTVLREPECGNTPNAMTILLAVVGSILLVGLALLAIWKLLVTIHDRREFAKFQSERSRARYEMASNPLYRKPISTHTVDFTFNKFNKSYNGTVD

Results are given in words; binding and its absence hold for the method and conditions named. For part of these data: In cells and extracts the contact can be indirect. Some binding calls cover weakened binding; strength is not graded here.

Take “recombinant human Hsp90α (purified from E. coli, untagged) (from UniProt P07900 2-732)”: the binding entry in assay [1] and in assay [2] was “binds” each time. Consider “endogenous cell surface eHsp90α on SK-Mel2 cells (from UniProt P07900 2-732)”, for which the binding entry in assay [3] is reported as “binds”.

(Values after US20260139023A1.)
